# Laboratory results from article PMC11112163.
# Sequences of proteins named here, by UniProt entry; tags and fusion partners are left off.
# UniProt Q6PDQ2: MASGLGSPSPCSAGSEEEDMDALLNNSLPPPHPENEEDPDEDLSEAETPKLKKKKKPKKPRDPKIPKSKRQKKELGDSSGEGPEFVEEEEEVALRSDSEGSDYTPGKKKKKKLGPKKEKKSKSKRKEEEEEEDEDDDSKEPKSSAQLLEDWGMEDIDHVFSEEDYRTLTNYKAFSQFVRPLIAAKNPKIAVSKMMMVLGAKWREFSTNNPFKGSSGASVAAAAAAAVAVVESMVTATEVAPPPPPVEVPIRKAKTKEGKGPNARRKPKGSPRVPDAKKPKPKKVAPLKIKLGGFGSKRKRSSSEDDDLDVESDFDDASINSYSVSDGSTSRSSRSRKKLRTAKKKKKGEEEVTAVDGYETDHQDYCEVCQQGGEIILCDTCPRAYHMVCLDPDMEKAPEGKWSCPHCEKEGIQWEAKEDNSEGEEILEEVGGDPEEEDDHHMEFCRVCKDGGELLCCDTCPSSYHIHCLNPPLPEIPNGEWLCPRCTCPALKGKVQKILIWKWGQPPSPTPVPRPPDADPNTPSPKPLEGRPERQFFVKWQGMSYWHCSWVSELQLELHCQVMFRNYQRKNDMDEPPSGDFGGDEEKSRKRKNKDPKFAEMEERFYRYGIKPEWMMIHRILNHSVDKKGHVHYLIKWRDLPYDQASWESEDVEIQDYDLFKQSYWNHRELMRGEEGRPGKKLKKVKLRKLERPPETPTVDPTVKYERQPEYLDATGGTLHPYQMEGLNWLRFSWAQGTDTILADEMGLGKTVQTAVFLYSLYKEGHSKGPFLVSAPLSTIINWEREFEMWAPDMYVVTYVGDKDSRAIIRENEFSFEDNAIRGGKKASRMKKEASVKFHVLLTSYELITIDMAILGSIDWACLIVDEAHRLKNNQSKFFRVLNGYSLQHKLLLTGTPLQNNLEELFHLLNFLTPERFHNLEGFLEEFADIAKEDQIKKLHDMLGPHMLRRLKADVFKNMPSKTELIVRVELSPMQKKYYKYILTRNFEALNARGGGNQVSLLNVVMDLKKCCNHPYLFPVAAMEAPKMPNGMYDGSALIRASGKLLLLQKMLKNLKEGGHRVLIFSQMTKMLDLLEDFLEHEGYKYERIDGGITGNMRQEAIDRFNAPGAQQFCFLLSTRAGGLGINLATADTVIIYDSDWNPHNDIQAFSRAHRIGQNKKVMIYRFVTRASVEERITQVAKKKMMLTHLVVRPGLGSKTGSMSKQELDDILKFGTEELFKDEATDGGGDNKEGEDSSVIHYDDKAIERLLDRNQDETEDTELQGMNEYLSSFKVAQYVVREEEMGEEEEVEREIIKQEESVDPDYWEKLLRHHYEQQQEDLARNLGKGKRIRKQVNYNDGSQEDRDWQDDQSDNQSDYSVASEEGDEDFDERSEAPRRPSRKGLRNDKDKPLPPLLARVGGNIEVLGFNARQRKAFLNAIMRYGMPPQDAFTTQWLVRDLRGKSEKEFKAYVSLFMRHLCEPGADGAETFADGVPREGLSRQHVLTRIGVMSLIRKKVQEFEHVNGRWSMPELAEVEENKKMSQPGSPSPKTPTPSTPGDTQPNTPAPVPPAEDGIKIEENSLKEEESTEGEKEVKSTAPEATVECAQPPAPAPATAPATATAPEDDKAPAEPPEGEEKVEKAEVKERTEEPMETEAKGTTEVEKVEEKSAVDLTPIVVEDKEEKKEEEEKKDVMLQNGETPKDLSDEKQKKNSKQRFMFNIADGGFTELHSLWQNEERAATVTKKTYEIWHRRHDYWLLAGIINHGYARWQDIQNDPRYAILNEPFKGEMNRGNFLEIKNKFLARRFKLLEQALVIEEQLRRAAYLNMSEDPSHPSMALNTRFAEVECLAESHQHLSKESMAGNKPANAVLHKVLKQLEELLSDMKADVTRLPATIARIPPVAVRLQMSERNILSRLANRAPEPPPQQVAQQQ
# UniProt Q61881: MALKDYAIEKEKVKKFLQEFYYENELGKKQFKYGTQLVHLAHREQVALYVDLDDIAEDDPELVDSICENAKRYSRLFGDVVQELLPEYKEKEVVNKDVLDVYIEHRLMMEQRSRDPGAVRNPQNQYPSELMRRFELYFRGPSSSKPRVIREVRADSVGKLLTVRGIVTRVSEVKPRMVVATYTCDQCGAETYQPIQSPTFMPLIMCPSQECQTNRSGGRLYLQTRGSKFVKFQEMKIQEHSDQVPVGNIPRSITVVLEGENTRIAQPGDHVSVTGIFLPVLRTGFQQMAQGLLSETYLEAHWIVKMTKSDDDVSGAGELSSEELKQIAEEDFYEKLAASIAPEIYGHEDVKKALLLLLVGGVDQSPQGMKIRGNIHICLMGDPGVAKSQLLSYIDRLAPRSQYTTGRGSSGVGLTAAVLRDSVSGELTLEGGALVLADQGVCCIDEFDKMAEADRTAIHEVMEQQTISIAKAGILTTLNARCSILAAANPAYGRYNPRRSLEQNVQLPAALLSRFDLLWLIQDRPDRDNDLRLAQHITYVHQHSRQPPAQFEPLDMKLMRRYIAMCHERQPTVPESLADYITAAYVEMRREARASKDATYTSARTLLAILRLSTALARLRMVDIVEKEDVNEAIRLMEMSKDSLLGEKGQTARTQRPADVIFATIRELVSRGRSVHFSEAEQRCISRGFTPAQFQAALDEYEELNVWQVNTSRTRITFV
# UniProt Q8CHY6: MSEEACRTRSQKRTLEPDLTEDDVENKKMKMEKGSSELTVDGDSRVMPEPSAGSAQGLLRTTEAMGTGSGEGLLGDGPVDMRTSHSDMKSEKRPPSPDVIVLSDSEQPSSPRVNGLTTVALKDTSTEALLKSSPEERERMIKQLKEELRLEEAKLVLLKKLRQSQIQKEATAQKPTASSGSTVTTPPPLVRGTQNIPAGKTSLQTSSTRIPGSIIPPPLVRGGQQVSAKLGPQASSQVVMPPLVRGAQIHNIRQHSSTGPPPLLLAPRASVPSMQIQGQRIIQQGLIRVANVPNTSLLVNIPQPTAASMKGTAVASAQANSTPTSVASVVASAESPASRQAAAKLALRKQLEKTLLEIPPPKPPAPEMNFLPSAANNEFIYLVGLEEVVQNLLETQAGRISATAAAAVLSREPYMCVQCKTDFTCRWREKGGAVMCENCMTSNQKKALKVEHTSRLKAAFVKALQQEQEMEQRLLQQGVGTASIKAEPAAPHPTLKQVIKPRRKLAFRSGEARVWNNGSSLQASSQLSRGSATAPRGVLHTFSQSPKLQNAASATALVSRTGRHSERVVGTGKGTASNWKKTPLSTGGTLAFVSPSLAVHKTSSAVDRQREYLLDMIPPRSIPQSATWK
# UniProt Q9EP97: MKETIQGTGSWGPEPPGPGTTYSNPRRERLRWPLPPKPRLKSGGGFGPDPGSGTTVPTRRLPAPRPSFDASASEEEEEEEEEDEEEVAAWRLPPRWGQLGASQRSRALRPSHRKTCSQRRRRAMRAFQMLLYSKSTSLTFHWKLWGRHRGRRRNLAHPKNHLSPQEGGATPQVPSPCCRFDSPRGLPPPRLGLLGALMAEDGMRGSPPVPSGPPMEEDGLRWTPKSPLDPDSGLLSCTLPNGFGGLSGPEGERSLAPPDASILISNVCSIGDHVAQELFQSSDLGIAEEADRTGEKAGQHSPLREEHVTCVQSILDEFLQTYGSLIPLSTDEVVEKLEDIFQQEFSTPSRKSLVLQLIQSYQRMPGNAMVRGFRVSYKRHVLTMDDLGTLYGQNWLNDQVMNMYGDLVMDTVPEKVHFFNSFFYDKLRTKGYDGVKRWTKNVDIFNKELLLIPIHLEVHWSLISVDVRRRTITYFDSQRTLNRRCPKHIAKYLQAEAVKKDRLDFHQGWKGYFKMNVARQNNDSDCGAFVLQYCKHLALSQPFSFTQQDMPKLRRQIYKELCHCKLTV
# UniProt Q9R190: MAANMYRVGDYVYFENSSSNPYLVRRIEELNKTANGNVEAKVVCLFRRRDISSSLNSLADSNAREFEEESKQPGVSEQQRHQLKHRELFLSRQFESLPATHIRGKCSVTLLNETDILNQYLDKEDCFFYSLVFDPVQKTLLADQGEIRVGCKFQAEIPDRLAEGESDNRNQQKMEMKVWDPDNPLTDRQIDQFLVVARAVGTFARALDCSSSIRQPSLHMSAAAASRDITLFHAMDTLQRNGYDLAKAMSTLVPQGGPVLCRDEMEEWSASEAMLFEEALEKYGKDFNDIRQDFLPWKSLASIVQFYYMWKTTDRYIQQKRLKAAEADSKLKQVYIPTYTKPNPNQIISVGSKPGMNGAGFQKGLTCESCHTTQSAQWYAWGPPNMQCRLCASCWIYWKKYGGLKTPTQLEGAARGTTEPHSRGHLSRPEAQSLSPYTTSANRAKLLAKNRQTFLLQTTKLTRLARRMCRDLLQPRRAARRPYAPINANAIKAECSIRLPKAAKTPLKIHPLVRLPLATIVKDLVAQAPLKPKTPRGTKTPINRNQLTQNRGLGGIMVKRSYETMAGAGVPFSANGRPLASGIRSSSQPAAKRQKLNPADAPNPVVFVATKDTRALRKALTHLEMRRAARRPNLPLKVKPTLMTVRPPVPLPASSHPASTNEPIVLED
# UniProt Q3TKT4: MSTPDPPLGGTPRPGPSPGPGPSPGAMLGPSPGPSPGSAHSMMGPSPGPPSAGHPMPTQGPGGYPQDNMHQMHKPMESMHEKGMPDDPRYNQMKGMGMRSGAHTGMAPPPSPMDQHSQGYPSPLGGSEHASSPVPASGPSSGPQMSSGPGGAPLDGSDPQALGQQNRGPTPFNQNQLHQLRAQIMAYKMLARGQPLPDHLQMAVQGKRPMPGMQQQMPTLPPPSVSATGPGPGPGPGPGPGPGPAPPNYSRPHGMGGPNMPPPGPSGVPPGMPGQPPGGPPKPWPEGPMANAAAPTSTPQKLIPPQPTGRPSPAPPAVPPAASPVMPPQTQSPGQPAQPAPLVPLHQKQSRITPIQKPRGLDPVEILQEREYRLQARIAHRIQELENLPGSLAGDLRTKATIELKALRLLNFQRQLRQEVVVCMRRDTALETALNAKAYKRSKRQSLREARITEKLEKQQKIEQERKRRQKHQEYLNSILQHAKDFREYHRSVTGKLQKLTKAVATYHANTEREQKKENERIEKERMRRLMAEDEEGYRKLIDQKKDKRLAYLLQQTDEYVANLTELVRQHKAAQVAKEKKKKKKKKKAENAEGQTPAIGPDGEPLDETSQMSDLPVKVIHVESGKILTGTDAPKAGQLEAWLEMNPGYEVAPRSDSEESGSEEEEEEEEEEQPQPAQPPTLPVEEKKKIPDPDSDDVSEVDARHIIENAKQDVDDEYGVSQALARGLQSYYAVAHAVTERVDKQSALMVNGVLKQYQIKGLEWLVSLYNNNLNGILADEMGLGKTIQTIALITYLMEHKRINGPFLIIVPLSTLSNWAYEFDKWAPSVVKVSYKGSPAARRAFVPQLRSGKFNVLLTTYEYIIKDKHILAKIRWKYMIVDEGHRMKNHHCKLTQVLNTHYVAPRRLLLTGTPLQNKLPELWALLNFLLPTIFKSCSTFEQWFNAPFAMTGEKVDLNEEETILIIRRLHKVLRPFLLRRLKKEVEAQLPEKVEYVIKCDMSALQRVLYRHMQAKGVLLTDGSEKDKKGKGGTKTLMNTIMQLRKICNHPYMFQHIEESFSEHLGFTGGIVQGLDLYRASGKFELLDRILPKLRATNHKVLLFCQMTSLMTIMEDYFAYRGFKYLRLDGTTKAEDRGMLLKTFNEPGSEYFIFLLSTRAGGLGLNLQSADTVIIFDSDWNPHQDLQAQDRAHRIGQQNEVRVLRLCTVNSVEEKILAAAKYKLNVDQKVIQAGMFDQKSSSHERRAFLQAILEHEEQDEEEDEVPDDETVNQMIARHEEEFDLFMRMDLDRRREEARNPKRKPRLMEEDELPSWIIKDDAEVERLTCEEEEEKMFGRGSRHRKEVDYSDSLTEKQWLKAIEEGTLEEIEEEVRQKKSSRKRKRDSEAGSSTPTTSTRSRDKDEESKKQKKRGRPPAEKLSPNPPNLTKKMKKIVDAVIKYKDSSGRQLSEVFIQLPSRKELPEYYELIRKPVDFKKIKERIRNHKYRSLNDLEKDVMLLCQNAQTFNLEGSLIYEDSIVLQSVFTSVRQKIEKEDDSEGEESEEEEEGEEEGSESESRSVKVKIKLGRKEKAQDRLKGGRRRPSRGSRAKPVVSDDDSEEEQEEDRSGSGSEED
# UniProt O09106: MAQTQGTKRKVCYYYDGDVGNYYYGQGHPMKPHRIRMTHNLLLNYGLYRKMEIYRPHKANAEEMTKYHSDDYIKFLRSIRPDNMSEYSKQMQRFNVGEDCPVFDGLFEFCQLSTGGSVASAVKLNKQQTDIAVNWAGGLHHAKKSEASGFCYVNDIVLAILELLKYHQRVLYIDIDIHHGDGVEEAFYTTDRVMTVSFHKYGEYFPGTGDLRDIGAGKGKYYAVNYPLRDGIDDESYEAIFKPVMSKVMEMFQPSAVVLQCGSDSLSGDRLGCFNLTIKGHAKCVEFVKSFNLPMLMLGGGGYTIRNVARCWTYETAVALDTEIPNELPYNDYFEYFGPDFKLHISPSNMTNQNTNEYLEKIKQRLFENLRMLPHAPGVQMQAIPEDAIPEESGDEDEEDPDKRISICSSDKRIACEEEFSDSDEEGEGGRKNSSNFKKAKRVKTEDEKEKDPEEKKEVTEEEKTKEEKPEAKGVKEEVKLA
# T1: SMYD1 (endogenous, mouse heart) (mouse (endogenous in embryonic and adult hearts)) (UniProt P97443)
# T1 sequence: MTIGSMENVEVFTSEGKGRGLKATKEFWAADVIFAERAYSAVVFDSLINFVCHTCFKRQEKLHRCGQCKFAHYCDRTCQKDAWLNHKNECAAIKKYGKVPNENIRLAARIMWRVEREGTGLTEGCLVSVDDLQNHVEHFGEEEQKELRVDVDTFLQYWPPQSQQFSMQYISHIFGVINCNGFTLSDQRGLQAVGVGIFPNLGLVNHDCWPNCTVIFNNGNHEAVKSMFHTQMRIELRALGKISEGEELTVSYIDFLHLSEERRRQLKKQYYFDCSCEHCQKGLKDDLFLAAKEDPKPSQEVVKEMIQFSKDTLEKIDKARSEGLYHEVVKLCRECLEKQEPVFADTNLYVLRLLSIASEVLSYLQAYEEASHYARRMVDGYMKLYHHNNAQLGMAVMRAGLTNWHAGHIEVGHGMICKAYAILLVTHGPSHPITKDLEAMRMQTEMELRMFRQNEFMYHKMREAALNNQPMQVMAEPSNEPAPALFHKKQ
# Columns and labels:
# [1] = biological target: T1, SMYD1 (endogenous, mouse heart) (mouse (endogenous in embryonic and adult hearts)); assay: affinity purification with mass spectrometry; IP of endogenous SMYD1 (rabbit anti-SMYD1 on magnetic beads) from cardiac nuclei of E9.5 mouse embryonic hearts; MS/MS
# [2] = biological target: CHD4 (endogenous, mouse heart) (mouse (endogenous in embryonic and adult hearts)) (UniProt Q6PDQ2); assay: affinity purification with mass spectrometry; IP of endogenous CHD4 (rabbit anti-CHD4 on magnetic beads) from cardiac nuclei of E10.5 mouse embryonic hearts; IgG control; nLC-MS/MS
# [3] = biological target: CHD4 (endogenous, mouse heart) (mouse (endogenous in embryonic and adult hearts)) (UniProt Q6PDQ2); assay: as above; remark: listed apart in the source
Molecule,binding [1],binding [2],binding [3]
MTA1 (from UniProt Q8K4B0 1-715),binds,binds,
MCM7 (from UniProt Q61881 1-719),binds,binds,
RBBP5 (from UniProt Q8BX09 1-538),binds,binds,
GATAD2A (from UniProt Q8CHY6 1-629),binds,,
SENP3 (from UniProt Q9EP97 1-568),binds,binds,
MTA2 (from UniProt Q9R190 1-668),binds,binds,
CSNK2A1 (from UniProt Q60737 1-391),binds,binds,
MTA3 (from UniProt Q924K8 1-591),binds,binds,
PELP1 (from UniProt Q9DBD5 1-1123),binds,binds,
SMARCA4 (from UniProt Q3TKT4 1-1613),binds,,
GATAD2B (from UniProt Q8VHR5 1-594),binds,,
HDAC1 (from UniProt O09106 1-482),binds,,
HDAC2 (from UniProt P70288 1-488),binds,,
"MCM4 (protein, UniProt P49717 1-862) MSSPASTPSRRSSRRGRVTPTQSLRSEESRSSPNRRRRGEDSSTGELLPMPTSPGADLQSPPAQNALFSSPPQMHSLAIPLDFDVSSPLTYGTPSSRVEGTPRSGVRGTPVRQRPDLGSARKGLQVDLQSDGAAAEDIVPSEQSLGQKLVIWGTDVNVATCKENFQRFLQCFTDPLAKEEENVGIDITQPLYMQQLGEINITGEPFLNVNCEHIKSFSKNLYRQLISYPQEVIPTFDMAVNEIFFDRYPDSILEHQIQVRPFNALKTKSMRNLNPEDIDQLITISGMVIRTSQLIPEMQEAFFQCQVCAHTTRVEIDRGRIAEPCSCVHCHTTHSMALIHNRSFFSDKQMIKLQESPEDMPAGQTPHTIVLFAHNDLVDKVQPGDRVNVTGIYRAVPIRVNPRVSNVKSVYKTHIDVIHYRKTDAKRLHGLDEEAEQKLFSEKRVKLLKELSRKPDIYERLASALAPSIYEHEDIKKGILLQLFGGTRKDFSHTGRGKFRAEINILLCGDPGTSKSQLLQYVYNLVPRGQYTSGKGSSAVGLTAYVMKDPETRQLVLQTGALVLSDNGICCIDEFDKMNESTRSVLHEVMEQQTLSIAKAGIICQLNARTSVLAAANPIESQWNPKKTTIENIQLPHTLLSRFDLIFLMLDPQDEAYDRRLAHHLVSLYYQSEEQVEEEFLDMAVLKDYIAYAHSTIMPRLSEEASQALIEAYVNMRKIGSSRGMVSAYPRQLESLIRLAEAHAKVRFSNKVEAIDVEEAKRLHREALKQSATDPRTGIVDISILTTGMSATSRKRKEELAEALRKLILSKGKTPALKYQQLFEDIRGQSDTAITKDMFEEALRALADDDFLTVTGKTVRLL",binds,,binds
"MCM6 (protein, UniProt P97311 1-821) MDLAAAAEPGAGSQHPEVRDEVAEKCQKLFLDFLEEFQGSDGEIKYLQFAEELIRPERNTLVVSFADLEQFNQQLSTTIQEEFYRVYPYLCRALKTFVKDRKEIPFAKDFYVAFQDLPTRHKIRELTSSRIGLLTRISGQVVRTHPVHPELVSGTFLCLDCQTVIKDVEQQFKYTQPNICRNPVCANRKRFLLDTNKSRFVDFQKVRIQETQAELPRGSIPRSLEVILRAEAVESAQAGDRCDFTGALIVVPDVSKLSTPGARAETNSRVSGADGYETEGIRGLRALGVRDLSYRLVFLACHVAPTNPRFGGKELRDEEQTAESIKNQMTVKEWEKVFEMSQDKNLYHNLCTSLFPTIHGNDEVKRGVLLMLFGGVPKTTGEGTSLRGDINVCIVGDPSTAKSQFLKHVDEFSPRAVYTSGKASSAAGLTAAVVRDEESHEFVIEAGALMLADNGVCCIDEFDKMDMRDQVAIHEAMEQQTISITKAGVKATLNARTSILAAANPVSGHYDRSKSLKQNINLSAPIMSRFDLFFILVDECNEVTDYAIARRIVDLHSRIEESIDRVYSLDDIRRYLLFARQFKPKISKESEDFIVEQYKRLRQRDGSGVTKSSWRITVRQLESMIRLSESMARMHCCDEVQPKHVKEAFRLLNKSIIRVETPDVNLDQEEEIQMETDEGQGGVNGHADSPAPVNRFNGSSEDASQETVSKPSLRLGFAEYCRISNLIVLHLRKMEEEEDESALKRSELVNWYLKEIESEIDSEEELINKKTIIEKVVHRLTHYDHVLIELTQAGLKGSSEGSESYEEDPYLVVNPNYLLED",binds,,binds

# Read-outs that look alike come from different tables or passages of the source. No constants are given. Whether binding was seen depends on the method and setting. Binding seen in cells or lysates may run through a third protein. Here binding means that the protein was enriched with, or labelled near, the bait; the list need not be complete.
